Here are results for eight molecules from patent publication US20260167714A1.

By UniProt entry, the sequences of proteins in these tests, tags left out. Where a name states a change or a piece, a line headed by the entry shows the natural chain unless it says otherwise. Residues count along the entry.
UniProt Q8N423, residues 22-597: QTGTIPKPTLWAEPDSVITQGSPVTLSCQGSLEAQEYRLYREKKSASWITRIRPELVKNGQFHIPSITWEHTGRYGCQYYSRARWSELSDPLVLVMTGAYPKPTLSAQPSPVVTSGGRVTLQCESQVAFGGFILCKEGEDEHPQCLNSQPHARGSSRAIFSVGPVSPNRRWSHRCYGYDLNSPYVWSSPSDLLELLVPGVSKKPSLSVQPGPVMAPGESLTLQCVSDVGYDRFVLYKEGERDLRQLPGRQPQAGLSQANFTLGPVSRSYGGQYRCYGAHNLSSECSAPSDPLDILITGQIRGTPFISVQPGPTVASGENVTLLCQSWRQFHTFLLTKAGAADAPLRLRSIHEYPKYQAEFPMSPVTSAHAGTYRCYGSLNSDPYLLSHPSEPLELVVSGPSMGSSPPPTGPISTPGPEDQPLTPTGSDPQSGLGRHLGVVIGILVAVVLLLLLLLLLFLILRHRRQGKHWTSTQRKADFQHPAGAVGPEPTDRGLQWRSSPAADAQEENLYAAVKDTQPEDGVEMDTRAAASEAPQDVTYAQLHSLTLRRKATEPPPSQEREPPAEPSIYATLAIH
UniProt Q8N6C8: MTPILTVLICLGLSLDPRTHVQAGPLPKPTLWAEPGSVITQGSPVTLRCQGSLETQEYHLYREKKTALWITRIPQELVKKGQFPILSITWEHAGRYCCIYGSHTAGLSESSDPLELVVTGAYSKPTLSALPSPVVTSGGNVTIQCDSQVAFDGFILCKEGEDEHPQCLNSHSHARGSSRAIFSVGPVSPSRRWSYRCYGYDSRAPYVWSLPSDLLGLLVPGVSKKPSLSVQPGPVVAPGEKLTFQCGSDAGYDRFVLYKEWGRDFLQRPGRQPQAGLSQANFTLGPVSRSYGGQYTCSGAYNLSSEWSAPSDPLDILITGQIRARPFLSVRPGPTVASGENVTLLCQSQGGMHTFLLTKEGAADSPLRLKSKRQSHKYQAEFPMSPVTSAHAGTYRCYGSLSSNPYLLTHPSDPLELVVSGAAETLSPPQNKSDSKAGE

Test [1] has as its target human ILT4 expressed on cells (human) (UniProt Q8N423). In words: flow cytometry blocking assay: CHO-S/ILT4 cells preincubated with antibody, then PE-HLA-G tetramer; relative blocking activity (%).
For a further test, the target named is LILRA3 (human) (UniProt Q8N6C8). Briefly: SPR, Biacore 8K cross-reactivity study.
Test [2] concerns the target human ILT4 expressed on cells (human) (UniProt Q8N423). Briefly: flow cytometry competition: unlabelled mAb (0-15 µg/mL) on ILT4-CHO cells, wash, then stained with the competitor AF647-Hz45.01-LALA.
The target is the same in test [3]. In words: flow cytometry, AF647-labelled mAb 0-10 µg/ml on ILT4-CHO cells.
The target is the same in test [4]. In words: flow cytometry blocking assay: antibody titrated (0-15 µg/mL) on ILT4-CHO cells, blocked ligand PE-HLA-G tetramer; HLA-G binding (%).
For test [5] the target is unchanged. In words: flow cytometry competition: unlabelled mAb (0-15 µg/mL) on ILT4-CHO cells, wash, then stained with the competitor AF647-Hz156.03-LALA [panel Hz45.01-LALA].
Test [6] shares this target. Briefly: flow cytometry competition: unlabelled mAb (0-15 µg/mL) on ILT4-CHO cells, wash, then stained with the competitor AF647-Hz156.03-LALA.
Test [7] shares this target. In words: flow cytometry blocking assay: antibody titrated (0-15 µg/mL) on ILT4-CHO cells, blocked ligand PE-HLA-A tetramer at 5 ug/ml; HLA-A binding (%).
For test [8] the target is unchanged. In words: flow cytometry competition: unlabelled mAb (0-15 µg/mL) on ILT4-CHO cells, wash, then stained with the competitor AF647-Hz45.01-LALA [panel Hz45.01-LALA].
Test [9] has the same target. Briefly: flow cytometry, direct binding of AF647-labelled antibody (0-10 µg/ml) to ILT4-CHO cells.
The target is the same in test [10]. Briefly: flow cytometry competition: unlabelled mAb (0-15 µg/mL) on ILT4-CHO cells, wash, then stained with the competitor AF647-Hz45.01-LALA [panel Hz156.03-LALA].
The target is the same in test [11]. Briefly: flow cytometry competition: unlabelled mAb (0-15 µg/mL) on ILT4-CHO cells, wash, then stained with the competitor AF647-Hz156.03-LALA [panel Hz156.03-LALA].

No constants are given. Whether binding was seen depends on the method and setting. Some binding calls cover weakened binding; strength is not graded here.

B1: L77S2 (antibody, IgG1, V domains shown)
VH: DVQLQQSGPELVKPGNSVKISCKAAGYSFTGYSVNWVKERHGKSLEWIGRINPYNGDIFNNQKFKGKATLTVDKSSSTAHMELRSLTSEDSAVYYCARGTTVGGAWFAYWGQGTLVTVSA
VL: VIVLTQSPASLAVSLGQRAAISCRASESVDSYGYSFLHWYQQKPGQPPKLLIYLASNLESGIPARFSGSGSGTDFTLTINPVEADDVATYYCQQSNEDLMYTFGGGTKLEIK
B1: the binding entry in [1] is “binds”.

B2: L41S5 (antibody, IgG2a, V domains shown)
VH: QVQLQQSGAELVKPGASVKISCKASGYAFSSYWMNWVKQRPGKGLEWIGQIYPGHGDTNYNGKFKGKATLTADKSSSTAYMQLSSLTSEDSAVYFCAKEGSELGRLFAYWGQGTLVTVSA
VL: QIVLTQSPALMSASPGEKVTMTCSASSSVSFMYWYQQKPRSSPKPWIYLTSNLASGVPARFSGSGSGTSYSLTISSMEAEDAATYYCQQWSSNPPTFGGGTKLEIK
As to B2, the binding entry in [1] is “binds”.

B3: L45S4 (antibody, IgG2a, V domains shown)
VH: EVQLQQSGPELVKPGASVKISCKASGYTFTDYYMNWVKQSHGKSLEWIGDINPNNGGTSYNQKFKGKATLTVDKSSSTAYMELRSLTSEDSAVYYCARGGAELTGTYWYFDVWGTGTTVTVSS
VL: DIQMTQSPASLSISVGETVTITCRASENIYSNLAWYQQKQGKSPQVLVYGATNLADGVPSRFSGSGSGTQYSLKIKSLQSEDFGSYYCQHFWDSPFTFGSGTKLEIK
For the molecule B3, the binding result in [1] is “binds”.

B4: Hz180-LALA (antibody, human IgG1, kappa, L234A L235A, V domains shown)
VH: QVQLVQSGAEVKKPGSSVKVSCKASGYSFIGYFMNWMRQAPGQGLEWIGRINPYNGDIFYNQKFKGRVTITVDKSTSTAYMELSSLRSEDTAVYYCARGITVAAGSFDVWGQGTTVTVSS
VL: DIVMTQSPDSLAVSLGERATINCRASESVDNYGNTFMHWYQQKPGQPPKLLIYRASNLESGIPDRFSGSGSGTDFTLTISSLQAEDVAVYYCQQSSDHPLTFGGGTKVEIKR
As to B4, the binding entry in the test with LILRA3 (human) is “binds”.

B5: L180S4 (antibody, IgG1, V domains shown)
VH: EVHLQQSGPELVKPGASVKISCKASGYSFIGYFMNWMKQSHGKSLEWIGRINPYNGDIFYNQKFKGKATLTVDKSSTTAHMDLLSLTSEDFAVYYCARGITVAAGSFDVWGTGTTVTVSS
VL: DIVLTQSPASLAVSLGQRATISCRASESVDNYGNTFMHWYQQKPGQPPKLLIYRASNLESGIPARFSGSGSKTDFTLTINPVEADDVATYYCQQSSDHPLTFGAGTKLELS
On to B5, for which the binding entry in test [1] was “binds”.

B6: Hz45.01-LALA (antibody, human IgG1, kappa, L234A L235A, V domains shown)
VH: QVQLVQSGAEVKKPGASVKVSCKASGYTFTDYYMNWVRQAPGQRLEWIGDINPNNGGTSYNQKFKGRATITVDTSASTAYMELSSLRSEDTAVYYCARGGAELTGTYWYFDVWGQGTTVTVSS
VL: DIQMTQSPSSLSASVGDRVTITCRASENIYSNLAWYQQKPGKAPKVLVYGATNLADGVPSRFSGSGSGTEYTLTISSLQPEDFATYYCQHFWDSPFTFGGGTKVEIKR
Turning to B6, the binding result in test [2], in test [3], in [4], in test [5], in test [6] and in test [7] was “binds” in each case. The binding result in [8] and in test [9] was “binds” throughout.

B7: Hz156.03-LALA (antibody, human IgG1, kappa, L234A L235A, V domains shown)
VH: QVQLVQSGAEVKKPGSSVKVSCKASGYTFTDYYMNWVRQAPGQGLEWIARIYPGVYRTHYNEKFKDRVTLTADKSTSTAYMELSSLRSEDTAVYYCARSGYYGGTYEEDAMDYWGQGTTVTVSS
VL: DIQMTQSPSSLSASVGDRVTITCRASENIYSNLAWYQQKPGKAPKLLVYAATSLADGVPSRFSGSGSGTDYTLTISSLQPEDFATYYCQNFWDTPYTFGQGTKVEIKR
For the molecule B7, the binding result in [3], in test [4], in [10], in [7], in [11] and in test [9] was “binds” throughout.

B8: L156S3 (antibody, IgG2a, V domains shown)
VH: QVQLKQSGAELVRPGASVKLSCRASGYTFTDYYMNWVKQRPGQGLEWIARIYPGVYRTHYNEKFKDKATLTAEKSSSTAYMELSSLTSEDSAVYFCARSGYYGGTYEEDAMDYWGQGTSVTVSS
VL: DIQMTQSPASLSVSVGETVTITCRASENIYSNLAWYQQKQGKSPQLLVYAATSLADGVPSRFRGSGSGTQYSLKISSLQSEDFGNYYCQNFWDTPYTFGGGTKLEIK
Turning to B8, the binding result in test [1] is given as “binds”.
